The whole screen tested about 360,000 compounds, of which about 10,000 (2.8%) were called active. The inconclusive results got no clear call from the source; some entries with a clear call stand among them for comparison. Calls come from the whole dose curve; as a rule, active = well fitted inhibition curve with a large enough effect; inconclusive = small, poorly fitted or top-dose-only effect; inactive = flat fitted curve, though single readings scatter. Potencies beside an inconclusive call are fits to weak or partial responses and may not hold up.
Target: Serine/threonine-protein kinase PLK1 (Homo sapiens) (UniProt P53350)
Assay: qHTS for Inhibitors of PLK1-PDB (polo-like kinase 1 - polo-box domain): Primary Screen; note: nearly all actives have a fitted effect of over 65% in size; for max response, negative = inhibition: series mostly up to about 57 µM
Details: Plk1 PBD binding of FITC phosphopeptide, fluorescence polarization
% is set by controls: 0 for no effect and ±100 for the full control effect; potency is the fitted concentration of half-maximal effect.

Sequences of proteins named here, by UniProt entry; tags and fusion partners are left off.
UniProt P53350, whole entry, looked up: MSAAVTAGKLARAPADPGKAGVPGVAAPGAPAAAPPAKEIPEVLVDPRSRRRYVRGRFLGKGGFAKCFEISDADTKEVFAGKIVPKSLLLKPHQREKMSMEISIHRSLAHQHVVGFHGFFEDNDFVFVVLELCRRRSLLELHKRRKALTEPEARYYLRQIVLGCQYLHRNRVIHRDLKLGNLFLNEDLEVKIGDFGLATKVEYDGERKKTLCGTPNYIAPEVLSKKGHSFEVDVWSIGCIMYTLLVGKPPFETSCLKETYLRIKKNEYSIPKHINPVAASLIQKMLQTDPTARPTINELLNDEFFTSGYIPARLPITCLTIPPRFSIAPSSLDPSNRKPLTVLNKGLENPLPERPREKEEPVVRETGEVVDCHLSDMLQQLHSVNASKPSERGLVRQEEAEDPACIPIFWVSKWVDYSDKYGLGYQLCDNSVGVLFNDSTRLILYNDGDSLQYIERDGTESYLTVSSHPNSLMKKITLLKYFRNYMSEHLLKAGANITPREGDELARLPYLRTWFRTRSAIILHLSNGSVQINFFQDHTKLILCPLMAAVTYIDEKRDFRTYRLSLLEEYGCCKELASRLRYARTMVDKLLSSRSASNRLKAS

SMILES	Potency	max response, negative = inhibition
Cc1ccccc1NN=Nc1nc2c([nH]1)c(=O)n(C)c(=O)n2C	inconclusive: 29.9 µM [inhibitor, single point]	
COc1ccc(N(C(C)C(=O)NCc2ccco2)S(C)(=O)=O)cc1 (configuration not stated)		inactive: -6.95%
S=c1[nH]nc(COc2ccccc2)n1/N=C/c1ccc(Cl)c(Cl)c1	active: 16.8 µM	
CC(=O)c1cccc(NC(=O)C(C)OC(=O)/C=C/c2cccs2)c1 (configuration not stated)		inactive: -6.19%
N#CC1=C(S)N(c2ccc(F)cc2)C(c2ccco2)NC1=O (configuration not stated)	inconclusive: 11.9 µM [inhibitor, partial curve]	
O=C(O)C1C(c2ccccc2)c2ccccc2C(O)C1CO (configuration not stated)		inactive: -6.43%
COc1cccc(OC)c1C(=O)NC(=S)Nc1cc(-c2nc3ccccc3[nH]2)ccc1Cl	active: 9.47 µM	
Cc1ccc(NC(=O)CCN2C(=O)c3cccc4cccc(c34)C2=O)cc1		inactive: -10.8%
O=C(CCCN1C(=O)c2ccccc2C1=O)Nc1nccs1		inactive: -14%
O=C(OCC(=O)N1CCN(C(=O)c2ccco2)CC1)c1ccccc1O	inconclusive: 29.9 µM [inhibitor, partial curve]	
Cc1ccc(C)c(S(=O)(=O)Nc2nc3ccc(S(N)(=O)=O)cc3s2)c1	inconclusive: 23.8 µM [inhibitor, single point]	
Clc1cccc(/C=N/N2CCN(Cc3ccccc3)CC2)c1		inactive: 5.34%
COC(=O)Cc1c(C)nc2nc(-c3cccnc3)[nH]n2c1=O	inconclusive: 23.8 µM [inhibitor, single point]	
O=C(Oc1cccc2c(O)cccc12)c1ccco1	inconclusive: 4.23 µM [inhibitor, full curve]	
Cc1ccc(C)c(SCC(=O)OCC(=O)Nc2ncc(C(F)(F)F)cc2Cl)c1	inconclusive: 29.9 µM [inhibitor, partial curve, poor fit]	
O=C(O)c1ccc(SCc2cnc(Cl)s2)cc1	inconclusive: 26.7 µM [inhibitor, partial curve]	
Cc1ccc(NC(=O)C2=C(O)c3ccccc3N(C)S2(=O)=O)cc1	inconclusive: 29.9 µM [inhibitor, single point]	
CCCCCC(=O)Nc1sc(C)c(C)c1C#N	active: 10.6 µM	
O=C(CN1C(=O)/C(=C/c2ccccc2)SC1=S)Nc1ncc(Cc2ccccc2)s1		inactive: -7.75%
COC(=O)c1c(-c2ccc(S(C)(=O)=O)cc2)sc2cc(OC)ccc12	inconclusive: 29.9 µM [inhibitor, single point]	
N#Cc1c(N2CCOCC2)nsc1-c1ccc(C(F)(F)F)cc1		inactive: -13.1%
CN(CCOc1ccccc1)CC(O)COCc1ccccc1F (configuration not stated)		inactive: -12.5%
Cc1c(Cl)cccc1NC(=S)NCc1cccn1C	active: 16.8 µM	
COc1ccc(N2C(=O)CC(Sc3ccccc3C(=O)O)C2=O)c([N+](=O)[O-])c1 (configuration not stated)	inconclusive: 26.7 µM [inhibitor, partial curve]	

SMILES	Potency	max response, negative = inhibition
O=C(c1ccc(Cl)cc1)N1CCC(C(=O)N2CCCc3ccccc32)CC1		inactive: -1.3%
CCC(C)C(=O)Nc1nc(-c2ccc3c(c2)NC(=O)CO3)cs1 (configuration not stated)	inconclusive: 21.2 µM [inhibitor, single point]	
CCOC(=O)[C@]12CCCC=C1N(Cc1ccccc1)C(=O)[C@H](CC(=O)NCc1ccc(C)o1)C2		inactive: -0.396%
COc1ccc(C)cc1Nc1nc(-c2c(C)[nH]c3ccccc23)cs1	inconclusive: 10.6 µM [inhibitor, partial curve]	
COc1ccc(CC(=O)NC(=S)NNC(=O)COc2c(C)cccc2C)cc1		inconclusive: -30.8% [inhibitor]
CCN1C(=O)[C@H]2[C@@H](c3ccc(-c4ccc(Cl)c(Cl)c4)c(OC)c3)N[C@@](C)(C(=O)OC)[C@H]2C1=O		inactive: -14.6%
O=C(c1ccc(S(=O)(=O)N2CCCCC2)cc1)N1CCN(CCN2C(=O)c3cccc4cccc(c34)C2=O)CC1		inactive: 2.14%
O=C(O)CC(NC(=O)c1sc2ccccc2c1Cl)c1ccc(OC2CCCC2)cc1 (configuration not stated)	inconclusive: 37.7 µM [inhibitor, single point]	
C/C(=N/NC(=O)Cc1cccs1)c1ccco1	inconclusive: 37.7 µM [inhibitor, single point]	
CCCCN1C(=O)N(C)C2NC(=S)NC21 (configuration not stated)		inactive: 0.511%
Cc1ccc(/C=N/N=C2/NC(=O)C(CC(=O)N3CCOCC3)S2)cc1 (configuration not stated)	inconclusive: 26.7 µM [inhibitor, partial curve]	
S=c1[nH]c2ccccc2n1CCOc1ccccc1	active: 18.9 µM	
COc1ccccc1CNC(=O)COc1ccc(S(=O)(=O)N2CCOCC2)cc1C		inactive: -1.23%
Oc1ccc2c(c1)OCC1(O)Cc3cc(O)c(O)cc3C21 (configuration not stated)	inconclusive: 23.8 µM [inhibitor, single point]	
c1cc2c3c(cccc3c1)NC(c1ccc3c(c1)OCO3)N2	inconclusive: 23.8 µM [inhibitor, single point]	
CC1CC(Nc2ccccc2)c2ccccc2N1C(=O)c1ccccc1F (configuration not stated)		inactive: -13.4%
CN(Cc1nc(-c2cnccn2)no1)Cc1n[nH]c2c1CCCCC2	inconclusive: 29.9 µM [inhibitor, partial curve]	
O=C(CNc1cccc(F)c1)Nc1cccc(S(=O)(=O)N2CCCCC2)c1		inactive: 5.27%
CCOc1ccc(N2CC(NC(=O)c3ccc4ccccc4c3)CC2=O)cc1 (configuration not stated)		inactive: -9.77%
CC1(C(=O)NS(=O)(=O)c2ccc(C#N)cc2)CCN1C(=O)CC1CC1 (configuration not stated)		inactive: 3.45%
CC(C)(C)N1CSC(=S)N(Cc2ccccc2)C1	inconclusive: 29.9 µM [inhibitor, single point]	
Cc1ccccc1CN1[C@@H](CC2CCCCC2)COCCS1(=O)=O	active: 26.7 µM	
COc1cc(O)c(C(CC(=O)N2CCN(c3ccccc3)CC2)c2ccc(N(C)C)cc2)c(OC)c1 (configuration not stated)		inactive: -10.9%
O=C(COc1ccc([N+](=O)[O-])cc1)Nc1ccc(S(=O)(=O)N2CCOCC2)cc1		inactive: -18.3%

A different layout for some results above.

| SMILES | Potency | max response, negative = inhibition |
| --- | --- | --- |
| Cc1ccccc1CN1[C@@H](CC2CCCCC2)COCCS1(=O)=O | active: 26.7 µM |  |
| COc1cc(O)c(C(CC(=O)N2CCN(c3ccccc3)CC2)c2ccc(N(C)C)cc2)c(OC)c1 (configuration not stated) |  | inactive: -10.9% |

(further entries)

SMILES	Potency	max response, negative = inhibition
OCCn1c(-c2ccc3c(c2)OCO3)csc1=Nc1ccccc1		inactive: -17.5%
Cc1ccc(-c2cc(C(=O)Nc3ccccc3C)c3ccccc3n2)o1	inconclusive: 29.9 µM [inhibitor, partial curve]	
Cc1cc(/C=C2/NC(=O)N(Cc3ccccc3F)C2=O)c(C)n1C	active: 29.9 µM	
CC(C)NC(=O)Cn1cc(C(=O)C2CC2)c2ccccc21	inconclusive: 4.74 µM [inhibitor, full curve]	
COc1ccc(NCc2nnc(SCC(=O)c3ccc(C)cc3)o2)cc1	inconclusive: 29.9 µM [inhibitor, single point]	
CCN(CC)CCCn1c(=S)[nH]c2ncccc2c1=O	inconclusive: 29.9 µM [inhibitor, partial curve]	
CCc1ccc(NC(=O)C(C)OC(=O)c2ccc(NS(=O)(=O)c3ccc(C)c([N+](=O)[O-])c3)cc2)cc1 (configuration not stated)		inconclusive: -33.5% [inhibitor]
Cc1ccc(P(=Nc2ccccc2)(N2CCOCC2)N2CCOCC2)o1	inconclusive: 29.9 µM [inhibitor, partial curve]	
CN(C)S(=O)(=O)N1CCN(c2ccc([N+](=O)[O-])c(N3CCCCC3)c2)CC1		inactive: -3.08%
Cc1cc(C)nc(-n2nc(C)c(Sc3ccc(F)cc3)c2N)n1	inconclusive: 26.7 µM [inhibitor, single point]	
Cc1ccc(S(=O)(=O)N(C)C[C@@H]2OCc3ccccc3-c3c(n(C)c4ccccc34)C(=O)N([C@H](C)CO)C[C@@H]2C)cc1		inactive: -2.32%
Cc1ccc(C2C(C=Nc3c(C)n(C)n(-c4ccccc4)c3=O)=C(c3ccccc3)Oc3ccccc32)cc1 (configuration not stated)	active: 21.2 µM	
CCN(CC)C(=O)CCc1nnc(Cc2cccc(C(F)(F)F)c2)o1	inconclusive: 33.6 µM [inhibitor, single point]	
O=C(CCc1ccc(S(=O)(=O)NC2CCCCC2)cc1)Nc1ccccc1	active: 26.7 µM	
CC(=O)N1CCOc2ccc(S(=O)(=O)NCCc3ccc(S(N)(=O)=O)cc3)cc21	active: 26.7 µM	
COc1ccc([N+](=O)[O-])cc1NC(=S)Nc1ccccc1		inactive: -29.9%
Cc1ccc2cccc(OCC(=O)Nc3ccc(N4CCOCC4)cc3)c2n1	inconclusive: 29.9 µM [inhibitor, partial curve]	
Nn1c(Cc2ccccc2F)nnc1SCn1nnc2ccccc2c1=O	inconclusive: 26.7 µM [inhibitor, single point]	
O=c1[nH]n2c(=O)c3c([nH]c2c1N=Nc1cccc(Cl)c1)CCCC3	inconclusive: 21.2 µM [inhibitor, partial curve]	
O=C(Cn1cnc([N+](=O)[O-])c1)NCCc1ccccc1		inactive: -1.43%
COC(=O)[C@@]12CCCCN1[C@H](c1ccc(-c3ccc(C(C)=O)cc3)cc1)[C@@H]1C(=O)N(C)C(=O)[C@@H]12		inactive: -13.3%
O=C(NCc1ccc(Cl)cc1)C1CCN(S(=O)(=O)c2ccccc2)CC1	active: 26.7 µM	
O=C1CC(=O)Nc2cc(S(=O)(=O)N3CCOc4ccc(Cl)cc43)ccc2N1	inconclusive: 21.2 µM [inhibitor, partial curve]	
COc1ccc(Cc2nnc(NS(=O)(=O)c3ccccc3)s2)cc1	inconclusive: 29.9 µM [inhibitor, single point]	
